Our source for the binding values is paper PMC5683061.

This experiment has as its target T1, Ferredoxin:NADP+ oxidoreductase (FNR), C. reinhardtii, recombinant soluble (C. reinhardtii) (UniProt P53991).
T1 sequence: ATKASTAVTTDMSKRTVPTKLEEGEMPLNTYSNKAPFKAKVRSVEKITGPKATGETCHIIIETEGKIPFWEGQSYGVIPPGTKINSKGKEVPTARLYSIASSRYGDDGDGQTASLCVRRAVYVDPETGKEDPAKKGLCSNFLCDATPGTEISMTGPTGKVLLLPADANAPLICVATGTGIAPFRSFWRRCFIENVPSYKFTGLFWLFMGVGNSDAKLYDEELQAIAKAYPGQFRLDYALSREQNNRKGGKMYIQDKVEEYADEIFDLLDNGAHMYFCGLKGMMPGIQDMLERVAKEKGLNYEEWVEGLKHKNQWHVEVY
Put plainly: NMR titration; 2D 1H-15N HSQC chemical shift perturbation of [15N]-FDX (50 µM) mixed with FNR (150 µM), molar ratio 1:3, without or with 150 µM of the other, non-labelled FDX; 25 mM MES-NaOH pH 6.5, 50 mM NaCl, 0.04% β-DDM, 10% D2O, 298 K; both purified.

No constants are given. Whether binding was seen depends on the method and setting. Binding calls can cover weak binding; strength is not graded here.

On to Ferredoxin 1 (FDX1), C. reinhardtii, for which the binding result was “binds”. Ferredoxin 2 (FDX2), C. reinhardtii: the binding result is “binds”.
